Reference: publication PMC4426952
No constants are given. Whether binding was seen depends on the method and setting. Binding seen in cells or lysates may run through a third protein. A yes stands for co-enrichment or nearness to the bait. Other partners may have been found.

Sequences of proteins named here, by UniProt entry; tags and fusion partners are left off. Residues count along the entry.
UniProt P40763: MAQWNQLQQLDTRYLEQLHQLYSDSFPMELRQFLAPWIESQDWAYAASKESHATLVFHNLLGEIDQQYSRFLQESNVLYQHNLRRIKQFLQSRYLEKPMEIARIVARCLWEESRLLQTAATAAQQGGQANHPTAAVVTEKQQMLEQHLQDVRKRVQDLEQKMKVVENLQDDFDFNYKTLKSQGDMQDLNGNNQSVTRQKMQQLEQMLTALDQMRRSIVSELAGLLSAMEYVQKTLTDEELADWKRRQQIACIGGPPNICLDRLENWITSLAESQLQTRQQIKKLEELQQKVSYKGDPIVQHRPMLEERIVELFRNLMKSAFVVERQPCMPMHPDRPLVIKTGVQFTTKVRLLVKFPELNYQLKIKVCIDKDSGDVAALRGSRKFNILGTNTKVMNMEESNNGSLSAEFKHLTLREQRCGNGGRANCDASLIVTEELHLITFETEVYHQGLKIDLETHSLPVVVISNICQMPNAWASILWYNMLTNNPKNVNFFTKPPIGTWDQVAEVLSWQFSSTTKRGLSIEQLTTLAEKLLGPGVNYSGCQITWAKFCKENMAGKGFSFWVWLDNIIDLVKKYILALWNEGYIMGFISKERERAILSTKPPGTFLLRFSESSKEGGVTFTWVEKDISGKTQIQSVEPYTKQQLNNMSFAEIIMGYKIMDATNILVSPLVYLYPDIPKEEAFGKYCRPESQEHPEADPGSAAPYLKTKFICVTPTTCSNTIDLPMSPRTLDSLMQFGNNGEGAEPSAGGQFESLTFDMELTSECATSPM
UniProt P28799, residues 18-593: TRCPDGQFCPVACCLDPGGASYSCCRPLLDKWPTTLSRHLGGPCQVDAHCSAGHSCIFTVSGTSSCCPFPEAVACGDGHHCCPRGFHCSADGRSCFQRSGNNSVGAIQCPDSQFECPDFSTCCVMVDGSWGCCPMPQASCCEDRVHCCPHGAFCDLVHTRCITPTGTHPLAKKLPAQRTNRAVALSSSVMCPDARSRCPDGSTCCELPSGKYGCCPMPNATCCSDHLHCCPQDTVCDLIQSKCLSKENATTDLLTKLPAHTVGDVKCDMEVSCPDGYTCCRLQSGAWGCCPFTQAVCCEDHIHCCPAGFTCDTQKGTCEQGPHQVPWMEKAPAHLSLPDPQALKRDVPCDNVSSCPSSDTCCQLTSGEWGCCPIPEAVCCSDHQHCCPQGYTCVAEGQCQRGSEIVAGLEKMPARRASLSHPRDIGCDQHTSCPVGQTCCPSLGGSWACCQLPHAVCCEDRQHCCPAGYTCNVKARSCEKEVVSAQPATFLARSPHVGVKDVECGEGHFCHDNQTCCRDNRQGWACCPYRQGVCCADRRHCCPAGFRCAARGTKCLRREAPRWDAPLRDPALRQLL

Target: signal transducer and activator of transcription 3 (STAT3) (human (endogenous in MDA-MB-468, SUM159PT, SK-BR-3)) (UniProt P40763)
Assay: affinity purification with mass spectrometry; immunoprecipitation of endogenous STAT3 from MDA-MB-468 and SUM159PT lysates (50 mM Tris pH 7.5, 150 mM NaCl, 0.5% NP40), LC-MS/MS shotgun profiling of the eluted complexes

binding: binds
Substance: granulin (GRN) (from UniProt P28799 18-593)
